Data as given in PubChem BioAssay AID2685 (National Center for Advancing Translational Sciences (NCATS), 2010).
The list shows a part of the results. These are further read-outs of the screen, such as a control signal, another cell line or another target. No call is given for them. Compounds called inactive in the main read-out are mostly missing here. Potencies come from curve fits of mixed quality, noted in brackets.

Assay: qHTS Assay for Lipid Storage Modulators in Drosophila S3 Cells;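 as to cell number change: cells counted by Cell Tracker Red CMTPX staining in the red channel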
Settings: BODIPY lipid droplet fluorescence, 18-24 h; for cell number change: measured here: cell count max response, cells fed with added oleic acid
In short: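 Laser-scanning cytometry quantifies lipid droplet accumulation (500–530 nm total intensity; droplet/cell object ratio) in oleic acid-fed (400 uM added) Drosophila S3 cells treated with a concentration series. 20 uM Triacsin C defined 100% inhibition.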

[1] = measured here: cell number channel AC50, cells fed with added oleic acid
[2] = measured here: lipid fluorescence (Fed channel) AC50, cells fed with added oleic acid

Compound	cell number change	AC50 [1]	AC50 [2]
COC(=O)CCCc1nc2ccccc2s1	35%	25.9 µM [rising, single point]	–
CC(=O)c1ccc(NS(=O)(=O)c2ccc(N/C=C/C(=O)c3ccc(F)cc3)cc2)cc1	16.8%	–	1.3 µM [rising, partial curve, poor fit]
CCOCc1nnc(NC(=O)c2c(-c3ccccc3)noc2C)s1	1.21%	–	2.06 µM [falling, full curve]
c1coc(-c2ccnc3nc(-n4cccc4)nn23)c1	–	6.51 µM [rising, partial curve, poor fit]	–
O=C1NC(c2cccc(Cl)c2)Oc2ccccc21 (stereo not drawn)	10.6%	–	0.58 µM [rising, single point]
Cc1ccnc(NC(=O)CNC(=O)c2ccc(C)s2)c1	60.9%	20.6 µM [rising, partial curve]	–
CCCS(=O)(=O)c1ncc(Cl)c(C(=O)Nc2ccc(S(=O)(=O)Nc3ncccn3)cc2)n1	-18.3%	–	29.1 µM [falling, single point]
COc1ccc(C2Nc3ccccc3C(=O)N2c2ccccc2)cc1Cn1cc([N+](=O)[O-])cn1 (stereo not drawn)	7.03%	–	7.31 µM [rising, partial curve, poor fit]
COc1cc(C2NC(=S)NC(c3ccccc3)=C2C(C)=O)cc(Br)c1OCC(N)=O (stereo not drawn)	27.4%	–	1.46 µM [rising, partial curve]
COc1cc(OC)cc(C(=O)NC(=S)Nc2ccc(N3CCCC3)cc2)c1	-22.9%	–	–
O=C1Nc2ccccc2C1=Nc1ccc(-c2nnc3n2CCCCC3)cc1	9.39%	–	9.2 µM [rising, partial curve]
O=c1c(Cc2c(F)cccc2Cl)c(O)ccn1C1CCCCCC1	9.58%	–	0.1 µM [falling, full curve, poor fit]
CSCCNC(=O)c1cccc(Cl)c1	38.6%	–	–
O=C(c1ccccc1)N1CCN(c2ccc([N+](=O)[O-])c(NCC3CCCO3)c2)CC1 (stereo not drawn)	-41.9%	29.1 µM [falling, single point]	–
CCNC(=S)N1CCNC(=O)C1CC(=O)OC (stereo not drawn)	165%	29.1 µM [rising, single point]	–
CCOCCCNC(=O)C1CCN(S(=O)(=O)N2CCCCC2)CC1	-17.3%	–	0.259 µM [falling, full curve, poor fit]
CCOc1ccc(/C=N/NC(=O)c2ccc(CSc3nc4ccccc4[nH]3)cc2)cc1	-1.63%	–	6.51 µM [rising, single point]
Cc1cc(C)c(NC(=O)CNC(=O)c2ccccc2SCC(=O)N2CCCC2)c(C)c1	2.13%	–	2.91 µM [rising, single point]

Two compounds drawn at random from the list so far, as already listed:
Compound	cell number change	AC50 [1]	AC50 [2]
COC(=O)CCCc1nc2ccccc2s1	35%	25.9 µM [rising, single point]	–
O=c1c(Cc2c(F)cccc2Cl)c(O)ccn1C1CCCCCC1	9.58%	–	0.1 µM [falling, full curve, poor fit]
